Measured values: US20090081183A1, “HIV Transcription Repressor Complex and Compositions and Methods Based Thereon” (priority 1997, published 2009)
These are yes or no findings as the source states them, for the method shown. In cells and extracts the contact can be indirect. Some results given as binding are weak or reduced against the parent protein; the word gives no strength.

Sequences of proteins named here, by UniProt entry; tags and fusion partners are left off. A change or cut given only in a name is not applied to a line headed by its entry.
UniProt P25490: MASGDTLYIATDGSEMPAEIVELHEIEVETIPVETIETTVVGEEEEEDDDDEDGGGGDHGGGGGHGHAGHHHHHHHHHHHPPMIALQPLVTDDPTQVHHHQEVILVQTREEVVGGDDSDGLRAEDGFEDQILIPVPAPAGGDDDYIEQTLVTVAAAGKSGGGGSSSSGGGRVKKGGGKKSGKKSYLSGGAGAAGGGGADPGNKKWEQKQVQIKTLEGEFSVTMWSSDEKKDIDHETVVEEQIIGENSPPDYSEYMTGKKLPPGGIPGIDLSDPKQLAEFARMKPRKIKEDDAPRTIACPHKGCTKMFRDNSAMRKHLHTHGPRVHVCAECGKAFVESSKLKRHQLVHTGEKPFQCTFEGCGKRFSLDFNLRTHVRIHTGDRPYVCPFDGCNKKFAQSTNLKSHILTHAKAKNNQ
UniProt Q13547: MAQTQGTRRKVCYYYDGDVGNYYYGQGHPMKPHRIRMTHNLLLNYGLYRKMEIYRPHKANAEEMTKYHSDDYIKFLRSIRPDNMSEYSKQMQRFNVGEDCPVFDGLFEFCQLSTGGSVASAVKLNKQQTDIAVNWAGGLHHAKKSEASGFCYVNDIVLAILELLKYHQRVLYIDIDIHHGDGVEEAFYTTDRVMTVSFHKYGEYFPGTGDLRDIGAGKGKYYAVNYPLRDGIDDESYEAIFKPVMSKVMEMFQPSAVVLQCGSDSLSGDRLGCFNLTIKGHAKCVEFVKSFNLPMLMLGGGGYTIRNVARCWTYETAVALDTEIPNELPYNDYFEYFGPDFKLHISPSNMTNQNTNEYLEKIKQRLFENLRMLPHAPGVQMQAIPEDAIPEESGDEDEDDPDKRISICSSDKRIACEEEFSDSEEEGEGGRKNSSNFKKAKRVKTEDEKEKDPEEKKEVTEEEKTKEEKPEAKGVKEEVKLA

Key:
[1] = biological target: T1, LSF, wild type, transcribed and translated in vitro in rabbit reticulocyte lysate, 35S-methionine labeled (human) (UniProt Q12800); experiment: GST pull-down of 35S-labeled LSF
T1 sequence (chain, 35S-methionine label): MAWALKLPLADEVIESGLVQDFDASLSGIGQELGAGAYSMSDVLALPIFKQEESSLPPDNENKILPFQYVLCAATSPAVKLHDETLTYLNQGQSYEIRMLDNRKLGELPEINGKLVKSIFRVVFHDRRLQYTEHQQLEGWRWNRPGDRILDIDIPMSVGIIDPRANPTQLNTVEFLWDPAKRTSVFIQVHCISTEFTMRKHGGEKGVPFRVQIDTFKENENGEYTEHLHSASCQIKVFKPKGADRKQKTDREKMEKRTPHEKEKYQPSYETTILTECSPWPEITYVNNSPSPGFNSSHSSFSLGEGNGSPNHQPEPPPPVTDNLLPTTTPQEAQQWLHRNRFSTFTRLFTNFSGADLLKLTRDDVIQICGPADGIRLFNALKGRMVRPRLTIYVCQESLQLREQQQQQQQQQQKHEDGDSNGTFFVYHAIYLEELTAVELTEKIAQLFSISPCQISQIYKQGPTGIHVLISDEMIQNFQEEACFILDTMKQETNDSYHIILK

[2] = biological target: T1, LSF, wild type, transcribed and translated in vitro in rabbit reticulocyte lysate, 35S-methionine labeled (human); experiment: GST pull-down of 35S-labeled LSF, autoradiography
[3] = biological target: YY1-LSF complex purified from CEM cell nuclear extract (RCS-binding repressor complex) (human) (UniProt P25490); experiment: copurification through phosphocellulose, DEAE-cellulose and RCS DNA-affinity chromatography; Western blot and deacetylase activity
[4] = biological target: T1, LSF, wild type, transcribed and translated in vitro in rabbit reticulocyte lysate, 35S-methionine labeled (human); experiment: GST pull-down of 35S-labeled LSF, normalized for protein concentration

Substance	binding [1]	binding [2]	binding [3]	binding [4]
GST-YY1 (full-length wild type YY1 fused to glutathione-S-transferase) (from UniProt P25490 1-414)	binds	binds		
HDAC1 (histone deacetylase 1), endogenous cellular protein (from UniProt Q13547 1-482) (enzyme)			binds	
YZnFs (GST fused to all four YY1 zinc fingers, without the YY1 amino-terminal region) (from UniProt P25490 295-414)	binds	binds		binds
